Results reported in the supplement of paper PMC12067093, “Discovery and optimisation of a covalent ligand for TRIM25 and its application to targeted protein ubiquitination” (Chemical Science, 2025).
Some of the results follow.

Amino acid sequences for entries named in this document (tags omitted). A change or cut given only in a name is not applied to a line headed by its entry.
UniProt Q96N46: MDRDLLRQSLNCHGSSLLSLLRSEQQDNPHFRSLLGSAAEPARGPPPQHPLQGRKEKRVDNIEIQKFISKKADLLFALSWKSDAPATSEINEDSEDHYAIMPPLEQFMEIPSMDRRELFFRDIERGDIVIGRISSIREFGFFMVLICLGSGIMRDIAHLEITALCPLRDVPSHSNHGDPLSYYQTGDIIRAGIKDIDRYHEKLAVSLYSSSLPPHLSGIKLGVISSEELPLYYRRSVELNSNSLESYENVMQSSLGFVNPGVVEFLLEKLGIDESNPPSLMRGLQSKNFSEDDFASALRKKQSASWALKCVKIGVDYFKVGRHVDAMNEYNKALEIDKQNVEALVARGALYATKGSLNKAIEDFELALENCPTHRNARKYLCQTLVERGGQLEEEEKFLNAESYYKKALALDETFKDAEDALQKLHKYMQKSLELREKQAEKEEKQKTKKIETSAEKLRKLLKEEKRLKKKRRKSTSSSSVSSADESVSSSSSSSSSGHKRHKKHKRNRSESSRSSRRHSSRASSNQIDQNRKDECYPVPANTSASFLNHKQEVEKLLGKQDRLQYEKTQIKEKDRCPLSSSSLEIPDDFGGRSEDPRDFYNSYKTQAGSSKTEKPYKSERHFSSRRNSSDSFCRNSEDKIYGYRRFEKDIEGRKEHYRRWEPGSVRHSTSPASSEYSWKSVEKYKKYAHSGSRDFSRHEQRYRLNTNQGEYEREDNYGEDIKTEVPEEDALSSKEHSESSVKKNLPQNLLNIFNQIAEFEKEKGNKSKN
UniProt Q9UNY4: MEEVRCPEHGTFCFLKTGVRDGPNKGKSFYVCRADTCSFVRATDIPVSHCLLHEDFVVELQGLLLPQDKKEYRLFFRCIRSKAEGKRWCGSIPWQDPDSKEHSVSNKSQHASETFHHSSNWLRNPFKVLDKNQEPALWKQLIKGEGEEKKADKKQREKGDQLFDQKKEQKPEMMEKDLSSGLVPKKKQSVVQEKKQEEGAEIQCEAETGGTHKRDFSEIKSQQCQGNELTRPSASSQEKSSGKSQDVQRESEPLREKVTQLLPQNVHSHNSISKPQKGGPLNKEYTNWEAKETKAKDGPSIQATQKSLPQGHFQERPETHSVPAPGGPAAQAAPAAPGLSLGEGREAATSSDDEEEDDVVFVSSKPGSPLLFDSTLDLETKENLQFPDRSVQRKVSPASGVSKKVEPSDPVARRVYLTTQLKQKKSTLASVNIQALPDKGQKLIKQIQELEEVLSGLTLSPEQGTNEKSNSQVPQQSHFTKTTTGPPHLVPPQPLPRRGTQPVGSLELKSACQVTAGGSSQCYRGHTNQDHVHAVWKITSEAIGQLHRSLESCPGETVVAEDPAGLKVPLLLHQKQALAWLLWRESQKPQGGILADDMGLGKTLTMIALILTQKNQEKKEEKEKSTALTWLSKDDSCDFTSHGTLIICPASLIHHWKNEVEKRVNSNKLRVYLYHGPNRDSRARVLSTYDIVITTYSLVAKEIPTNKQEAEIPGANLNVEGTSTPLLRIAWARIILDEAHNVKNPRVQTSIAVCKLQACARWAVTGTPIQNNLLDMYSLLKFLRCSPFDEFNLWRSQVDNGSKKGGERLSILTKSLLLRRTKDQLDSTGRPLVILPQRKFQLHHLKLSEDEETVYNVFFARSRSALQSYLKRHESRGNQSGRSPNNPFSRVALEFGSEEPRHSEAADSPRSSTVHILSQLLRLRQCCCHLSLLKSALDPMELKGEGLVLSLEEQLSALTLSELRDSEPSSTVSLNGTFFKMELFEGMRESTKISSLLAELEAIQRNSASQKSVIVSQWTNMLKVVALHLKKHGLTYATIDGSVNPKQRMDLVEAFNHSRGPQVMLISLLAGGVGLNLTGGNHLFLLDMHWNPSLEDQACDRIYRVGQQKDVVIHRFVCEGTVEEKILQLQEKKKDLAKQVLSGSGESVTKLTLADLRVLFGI
UniProt O94759, whole entry, looked up: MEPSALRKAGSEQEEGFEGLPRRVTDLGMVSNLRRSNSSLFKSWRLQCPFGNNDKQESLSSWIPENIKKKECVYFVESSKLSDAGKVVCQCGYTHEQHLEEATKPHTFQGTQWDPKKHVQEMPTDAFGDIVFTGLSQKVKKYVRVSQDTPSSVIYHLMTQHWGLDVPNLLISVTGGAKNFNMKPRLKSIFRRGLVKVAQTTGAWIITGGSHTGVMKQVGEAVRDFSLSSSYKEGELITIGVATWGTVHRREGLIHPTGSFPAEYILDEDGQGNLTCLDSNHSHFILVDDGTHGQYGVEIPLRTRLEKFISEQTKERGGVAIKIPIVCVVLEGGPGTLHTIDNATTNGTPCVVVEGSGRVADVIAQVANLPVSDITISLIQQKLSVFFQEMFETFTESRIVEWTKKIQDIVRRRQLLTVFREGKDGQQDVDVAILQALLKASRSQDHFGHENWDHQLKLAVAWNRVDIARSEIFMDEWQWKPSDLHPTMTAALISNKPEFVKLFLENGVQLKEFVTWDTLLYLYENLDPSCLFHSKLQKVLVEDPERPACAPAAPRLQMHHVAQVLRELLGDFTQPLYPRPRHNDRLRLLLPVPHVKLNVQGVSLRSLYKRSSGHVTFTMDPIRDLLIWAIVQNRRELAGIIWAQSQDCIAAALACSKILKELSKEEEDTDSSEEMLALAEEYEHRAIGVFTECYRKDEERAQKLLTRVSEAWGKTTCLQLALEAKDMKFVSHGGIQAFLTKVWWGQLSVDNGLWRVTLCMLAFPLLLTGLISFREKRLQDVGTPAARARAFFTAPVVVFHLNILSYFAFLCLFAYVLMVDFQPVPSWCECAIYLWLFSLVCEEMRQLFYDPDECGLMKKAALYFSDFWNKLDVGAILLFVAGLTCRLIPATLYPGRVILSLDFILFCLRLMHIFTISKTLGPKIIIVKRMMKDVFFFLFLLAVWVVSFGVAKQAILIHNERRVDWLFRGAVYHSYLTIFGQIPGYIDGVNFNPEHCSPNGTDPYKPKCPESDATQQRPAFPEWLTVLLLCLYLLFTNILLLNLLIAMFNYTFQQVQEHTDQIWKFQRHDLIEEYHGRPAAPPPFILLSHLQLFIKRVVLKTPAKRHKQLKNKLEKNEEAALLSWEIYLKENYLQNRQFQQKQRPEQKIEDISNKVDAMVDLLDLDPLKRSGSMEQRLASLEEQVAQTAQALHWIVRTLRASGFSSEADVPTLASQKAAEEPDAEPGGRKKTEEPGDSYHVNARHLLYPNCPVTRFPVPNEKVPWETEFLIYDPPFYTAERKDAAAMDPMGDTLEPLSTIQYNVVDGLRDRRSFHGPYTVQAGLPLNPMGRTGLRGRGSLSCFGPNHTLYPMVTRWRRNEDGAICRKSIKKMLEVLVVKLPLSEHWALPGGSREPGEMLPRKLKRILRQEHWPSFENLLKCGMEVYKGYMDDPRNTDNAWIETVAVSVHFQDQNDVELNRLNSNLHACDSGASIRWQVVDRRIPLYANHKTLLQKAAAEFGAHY
UniProt Q6PGP7, whole entry, looked up: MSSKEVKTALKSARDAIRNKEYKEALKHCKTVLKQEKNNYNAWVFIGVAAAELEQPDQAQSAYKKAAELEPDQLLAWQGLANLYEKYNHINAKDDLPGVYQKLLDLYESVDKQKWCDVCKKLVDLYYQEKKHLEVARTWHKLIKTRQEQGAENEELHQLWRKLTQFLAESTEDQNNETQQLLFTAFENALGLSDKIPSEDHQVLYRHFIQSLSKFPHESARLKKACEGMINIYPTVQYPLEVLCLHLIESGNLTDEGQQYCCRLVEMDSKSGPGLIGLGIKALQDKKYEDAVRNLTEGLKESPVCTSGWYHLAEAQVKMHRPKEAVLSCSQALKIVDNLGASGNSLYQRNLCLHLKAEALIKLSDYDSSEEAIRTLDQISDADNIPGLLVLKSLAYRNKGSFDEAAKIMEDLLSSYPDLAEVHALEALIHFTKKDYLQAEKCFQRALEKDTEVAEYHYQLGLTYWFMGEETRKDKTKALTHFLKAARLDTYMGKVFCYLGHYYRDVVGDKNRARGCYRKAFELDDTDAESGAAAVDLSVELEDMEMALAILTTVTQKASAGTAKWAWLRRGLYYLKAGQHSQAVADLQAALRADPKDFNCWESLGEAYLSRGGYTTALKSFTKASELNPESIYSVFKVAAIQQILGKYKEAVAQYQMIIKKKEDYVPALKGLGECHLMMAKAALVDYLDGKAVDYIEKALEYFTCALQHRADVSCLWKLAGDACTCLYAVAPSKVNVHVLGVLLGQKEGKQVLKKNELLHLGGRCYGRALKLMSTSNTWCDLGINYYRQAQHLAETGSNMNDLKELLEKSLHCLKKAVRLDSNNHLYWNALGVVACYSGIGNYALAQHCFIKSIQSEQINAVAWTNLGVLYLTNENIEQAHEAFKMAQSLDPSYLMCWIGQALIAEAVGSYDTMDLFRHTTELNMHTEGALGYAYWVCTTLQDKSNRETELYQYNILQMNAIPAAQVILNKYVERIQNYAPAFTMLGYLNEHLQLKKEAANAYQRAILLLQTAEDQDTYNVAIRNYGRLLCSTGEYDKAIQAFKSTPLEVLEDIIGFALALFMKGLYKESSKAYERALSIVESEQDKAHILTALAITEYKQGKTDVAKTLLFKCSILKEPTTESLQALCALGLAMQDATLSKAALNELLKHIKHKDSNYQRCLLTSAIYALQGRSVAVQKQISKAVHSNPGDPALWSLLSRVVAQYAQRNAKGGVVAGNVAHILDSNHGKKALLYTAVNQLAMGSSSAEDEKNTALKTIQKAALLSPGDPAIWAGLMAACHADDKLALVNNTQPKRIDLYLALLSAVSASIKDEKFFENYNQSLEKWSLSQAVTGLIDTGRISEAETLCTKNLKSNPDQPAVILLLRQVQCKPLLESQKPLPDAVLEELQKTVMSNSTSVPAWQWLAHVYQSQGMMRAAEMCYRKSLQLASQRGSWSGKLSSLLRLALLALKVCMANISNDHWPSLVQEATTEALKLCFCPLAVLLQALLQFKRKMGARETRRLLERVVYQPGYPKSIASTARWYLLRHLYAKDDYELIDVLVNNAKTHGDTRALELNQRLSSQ
UniProt Q9ULT0: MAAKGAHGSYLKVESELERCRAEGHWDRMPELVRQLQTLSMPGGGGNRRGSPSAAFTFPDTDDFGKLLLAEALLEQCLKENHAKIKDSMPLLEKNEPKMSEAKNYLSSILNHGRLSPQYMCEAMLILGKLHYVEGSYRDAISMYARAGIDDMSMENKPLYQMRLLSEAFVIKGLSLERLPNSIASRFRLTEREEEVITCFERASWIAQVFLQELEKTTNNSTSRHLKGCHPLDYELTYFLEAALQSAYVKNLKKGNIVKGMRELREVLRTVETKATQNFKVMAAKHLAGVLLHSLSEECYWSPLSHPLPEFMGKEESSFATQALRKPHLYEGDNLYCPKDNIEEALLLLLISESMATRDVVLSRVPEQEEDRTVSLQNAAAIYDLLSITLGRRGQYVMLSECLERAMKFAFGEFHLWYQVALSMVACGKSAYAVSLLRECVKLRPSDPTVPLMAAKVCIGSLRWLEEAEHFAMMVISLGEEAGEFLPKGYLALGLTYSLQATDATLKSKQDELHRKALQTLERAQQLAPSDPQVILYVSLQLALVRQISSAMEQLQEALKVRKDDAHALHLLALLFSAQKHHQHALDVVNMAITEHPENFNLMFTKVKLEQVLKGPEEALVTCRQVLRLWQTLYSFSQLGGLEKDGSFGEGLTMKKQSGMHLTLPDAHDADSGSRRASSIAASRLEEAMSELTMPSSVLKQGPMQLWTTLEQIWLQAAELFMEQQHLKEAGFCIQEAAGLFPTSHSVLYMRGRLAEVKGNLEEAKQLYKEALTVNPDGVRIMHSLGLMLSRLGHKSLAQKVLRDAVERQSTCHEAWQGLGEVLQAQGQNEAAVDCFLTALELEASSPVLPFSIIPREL
UniProt Q8NBS9: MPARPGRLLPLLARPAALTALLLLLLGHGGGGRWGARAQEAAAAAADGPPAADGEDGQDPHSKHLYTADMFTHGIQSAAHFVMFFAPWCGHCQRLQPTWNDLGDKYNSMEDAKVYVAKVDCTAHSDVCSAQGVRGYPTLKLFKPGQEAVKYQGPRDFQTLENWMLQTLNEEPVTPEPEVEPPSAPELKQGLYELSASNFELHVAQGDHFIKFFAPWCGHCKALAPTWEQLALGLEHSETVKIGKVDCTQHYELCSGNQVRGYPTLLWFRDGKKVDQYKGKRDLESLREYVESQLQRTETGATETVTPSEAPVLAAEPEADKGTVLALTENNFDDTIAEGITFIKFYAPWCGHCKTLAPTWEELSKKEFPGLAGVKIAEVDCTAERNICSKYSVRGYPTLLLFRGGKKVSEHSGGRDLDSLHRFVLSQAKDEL
UniProt Q99598: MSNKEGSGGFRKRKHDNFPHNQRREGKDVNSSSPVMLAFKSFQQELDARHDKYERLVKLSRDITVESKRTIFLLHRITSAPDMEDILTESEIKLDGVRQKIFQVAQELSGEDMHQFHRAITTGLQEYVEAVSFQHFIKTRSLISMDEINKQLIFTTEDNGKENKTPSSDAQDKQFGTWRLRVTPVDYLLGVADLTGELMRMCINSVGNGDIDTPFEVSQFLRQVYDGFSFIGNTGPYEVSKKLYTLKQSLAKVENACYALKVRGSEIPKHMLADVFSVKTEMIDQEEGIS

Compound: Cc1cc(ccc1-c1ccccc1)C(=O)N1CCCN(CC1)C(=O)CCl [compound 10]
Test: probe-labelled cysteine peptide fold change vs DMSO (competition) (log2 fold change); higher = less target engagement (more negative = stronger competition)
Conditions: THP-1, incubation time: 4 h
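Further: competitive profiling in live THP-1 cells: cysteine peptides tagged with an iodoacetamide desthiobiotin (IA-DTB) probe, intensity after compound treatment relative to DMSO-treated cells.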

| Target | probe-labelled cysteine peptide fold change (10 µM) | probe-labelled cysteine peptide fold change (50 µM) |
| --- | --- | --- |
| TUBGCP5_Q96RT8_670_FAGGDVCVDR (UniProt Q96RT8) | -0.0895 | -0.626 |
| TTC14_Q96N46_371_AIEDFELALENCPTHR (UniProt Q96N46) | 0.0868 | 0.0442 |
| TTF2_Q9UNY4_50_ATDIPVSHCLLHEDFVVELQGLLLPQDK (UniProt Q9UNY4) | 0.179 | 0.417 |
| TRPM2_O94759_1250_HLLYPNCPVTR (UniProt O94759) | -0.0942 | 0.13 |
| TROVE2_P10155_400_VLGSILNASTVAAAMCMVVTR (UniProt P10155) | -0.219 | 0.696 |
| TRRAP_Q9Y4A5_620_VANCQTVR (UniProt Q9Y4A5) | -0.0124 | -0.406 |
| TTC5_Q8N0Z6_304_KLQSMLGSLRPAHLGPCSDGHYQSASGQK (UniProt Q8N0Z6) | -0.153 | -0.354 |
| TTC37_Q6PGP7_497_VFCYLGHYYR (UniProt Q6PGP7) | 0.0718 | 0.189 |
| TTC7A_Q9ULT0_337_KPHLYEGDNLYCPK (UniProt Q9ULT0) | -0.132 | 0.184 |
| TXNDC5_Q8NBS9_128_VDCTAHSDVCSAQGVR (UniProt Q8NBS9) | -0.233 | -0.178 |
| TUBGCP4_Q9UGJ1_162_HSCGGLPPVR (UniProt Q9UGJ1) | 0.21 | 0.0244 |
| TSNAX_Q99598_257_VENACYALK (UniProt Q99598) | -0.0234 | -0.0416 |
| TTC17_Q96AE7_725_CPECENSLK (UniProt Q96AE7) | 0.113 | 0.453 |
| TTC37_Q6PGP7_675_GLGECHLMMAK (UniProt Q6PGP7) | 0.0644 | -0.241 |
| TRRAP_Q9Y4A5_3758_CFAQPNFK (UniProt Q9Y4A5) | 0.105 | 0.125 |
| TSSC4_Q9Y5U2_99_DIFDCLEGAAR (UniProt Q9Y5U2) | -0.245 | -0.311 |
| TSFM_P43897_240_YGALVICETSEQK (UniProt P43897) | 0.0173 | 0.173 |
| TTC21B_Q7Z4L5_914_EALVHCETDNK (UniProt Q7Z4L5) | -0.107 | -0.122 |

2 entries picked at random from those above, as already listed:

| Target | probe-labelled cysteine peptide fold change (10 µM) | probe-labelled cysteine peptide fold change (50 µM) |
| --- | --- | --- |
| TXNDC5_Q8NBS9_128_VDCTAHSDVCSAQGVR (UniProt Q8NBS9) | -0.233 | -0.178 |
| TRRAP_Q9Y4A5_3758_CFAQPNFK (UniProt Q9Y4A5) | 0.105 | 0.125 |

Continuation.

| Target | probe-labelled cysteine peptide fold change (10 µM) | probe-labelled cysteine peptide fold change (50 µM) |
| --- | --- | --- |
| TTF2_Q9UNY4_204_KQEEGAEIQCEAETGGTHKR (UniProt Q9UNY4) | -0.2 | -0.149 |
| TRPM2_O94759_1341_GSLSCFGPNHTLYPMVTR (UniProt O94759) | -0.0254 | 0.0306 |
| TRRAP_Q9Y4A5_2513_STPIGTSCQGAMLPSITNVINLADSHDR (UniProt Q9Y4A5) | 0.223 | 0.295 |
| TTC7A_Q9ULT0_733_EAGFCIQEAAGLFPTSHSVLYMR (UniProt Q9ULT0) | 0.14 | 0.488 |
| TUBA1B_P68363_347_SIQFVDWCPTGFK (UniProt P68363) | 0.15 | 0.00584 |
| TXNDC5_Q8NBS9_121+128_VDCTAHSDVCSAQGVR (UniProt Q8NBS9) | -0.369 | -0.366 |
| TSTA3_Q13630_112_VVSCLSTCIFPDK (UniProt Q13630) | -0.0923 | -0.367 |
| TUBGCP3_Q96CW5_388_TLAALVDHCQGR (UniProt Q96CW5) | 0.087 | 0.12 |
| TROVE2_P10155_520_GMLDMCGFDTGALDVIR (UniProt P10155) | -0.0108 | -0.124 |
| TTF2_Q9UNY4_204_KQEEGAEIQCEAETGGTHK (UniProt Q9UNY4) | -0.381 | 0.049 |
| TTC4_O95801_63_ENPDLACLQSIIFDEERSPEEQAK (UniProt O95801) | -0.307 | -0.087 |
| TXNDC5_Q8NBS9_353_FYAPWCGHCK (UniProt Q8NBS9) | -0.372 | -1.61 |
| TTLL12_Q14166_418_ERWGEDNHWICKPWNLAR (UniProt Q14166) | -0.272 | -0.759 |
| TTC7A_Q9ULT0_77_LLLAEALLEQCLK (UniProt Q9ULT0) | 0.0287 | 0.125 |
| TUBB6_Q9BUF5_127+129_KECEHCDCLQGFQLTHSLGGGTGSGMGTLLISK (UniProt Q9BUF5) | -0.297 | -0.728 |
| TTC14_Q96N46_577_DRCPLSSSSLEIPDDFGGR (UniProt Q96N46) | 0.256 | -0.193 |
| TRMT6_Q9UJA5_243_AATACFGFPK (UniProt Q9UJA5) | -0.0351 | -0.16 |
| TROVE2_P10155_71_GCEVIQEIK (UniProt P10155) | -0.263 | -0.0556 |
